Test results as given in the supplement of paper PMC9233669.
Variants at the floor of the assay are shown more often than the library holds them.

Experiments:
biotinyl-Phe-oxazolone = experiment: self-aminoacylation, catalytic enhancement (BFO) (fold over background); higher = more active; k-Seq, kA / k0A0; sequences stand for … in GGGAAUGGAUCCACAUCUACGAAUUC…UUCACUGCAGACUUGACGAAGCUG
In short: (§1)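 Catalytic enhancement equals the median kA over the uncatalyzed rate, the latter read from the low-activity peak of a bimodal Gaussian fit. Values of kA came from fitting each sequence's fraction reacted to a pseudo-first-order model, with 1000 bootstraps. Reacted RNA was captured with streptavidin and quantified by triplicate qPCR and Illumina sequencing after 90 minutes at room temperature with 2–1250 μM biotinyl-aminoacyl-oxazolone and 0.43 μM mutagenized RNA pools bearing a 21-nt variable region.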

biotinyl-Val-oxazolone = experiment: self-aminoacylation, catalytic enhancement (BVO) (fold over background); higher = more active; k-Seq, kA / k0A0; sequences stand for … in GGGAAUGGAUCCACAUCUACGAAUUC…UUCACUGCAGACUUGACGAAGCUG
In short: as §1

biotinyl-Leu-oxazolone = experiment: self-aminoacylation, catalytic enhancement (BLO) (fold over background); higher = more active; k-Seq, kA / k0A0; sequences stand for … in GGGAAUGGAUCCACAUCUACGAAUUC…UUCACUGCAGACUUGACGAAGCUG
In short: as §1

biotinyl-Met-oxazolone = experiment: self-aminoacylation, catalytic enhancement (BMO) (fold over background); higher = more active; k-Seq, kA / k0A0; sequences stand for … in GGGAAUGGAUCCACAUCUACGAAUUC…UUCACUGCAGACUUGACGAAGCUG
In short: as §1

biotinyl-Ile-oxazolone = experiment: self-aminoacylation, catalytic enhancement (BIO) (fold over background); higher = more active; k-Seq, kA / k0A0; sequences stand for … in GGGAAUGGAUCCACAUCUACGAAUUC…UUCACUGCAGACUUGACGAAGCUG
In short: as §1

biotinyl-Trp-oxazolone = experiment: self-aminoacylation, catalytic enhancement (BWO) (fold over background); higher = more active; k-Seq, kA / k0A0; sequences stand for … in GGGAAUGGAUCCACAUCUACGAAUUC…UUCACUGCAGACUUGACGAAGCUG
In short: as §1

| Sequence | self-aminoacylation (biotinyl-Phe-oxazolone) | self-aminoacylation (biotinyl-Val-oxazolone) | self-aminoacylation (biotinyl-Leu-oxazolone) | self-aminoacylation (biotinyl-Met-oxazolone) | self-aminoacylation (biotinyl-Ile-oxazolone) | self-aminoacylation (biotinyl-Trp-oxazolone) |
| --- | --- | --- | --- | --- | --- | --- |
| CUACUCCAAACAACCGGUCUG [Fam1A.1 aminoacylation ribozyme variant] | 0.699 | 1.1 | 0.9 | 0.806 | 1.17 | 1.26 |
| AUUACCCUGAGCAUCGAGUGA [Fam2.1 aminoacylation ribozyme variant] | 8.97 | 2.45 | 3.99 | 4.43 | 2.06 | 4.96 |
| CCACUCUUCAGGCAAUCGGUC [Fam1B.1 aminoacylation ribozyme variant] | 0.929 | 1.49 | 1.33 | 1.34 | 1.31 | 1.23 |
| CCAGACCUCAAGCAAUCGGUC [Fam1B.1 aminoacylation ribozyme variant] | 1.78 | 1.94 | 1.86 | 1.44 | 1.58 | 1.37 |
| CCACACUUCAGGCACUCGGUC [Fam1B.1 aminoacylation ribozyme variant] | 1.54 | 1.75 | 1.89 | 1.58 | 1.54 | 1.65 |
| CUACUUCACACAAUCGGUAUG [Fam1A.1 aminoacylation ribozyme variant] | 0.763 | 0.716 | 0.669 | 0.852 | 0.821 | 0.649 |
| CUACUUCCAACAAUCGGUCAG [Fam1A.1 aminoacylation ribozyme variant] | 1.04 | 0.774 | 0.663 | 0.62 | 0.795 | 0.518 |
| CUACUUCAAACCCUCGGUCUG [Fam1A.1 aminoacylation ribozyme variant] | 0.785 | 0.974 | 0.761 | 1.04 | 1.13 | 1.48 |
| CCACACUUCAAGCAAUAUGUC [Fam1B.1 aminoacylation ribozyme variant] | 0.828 | 0.722 | 0.501 | 0.429 | 0.552 | 0.555 |
| AUUCACCUAGGUCAACGGGAG [Fam2.2 aminoacylation ribozyme variant] | 0.42 | 0.879 | 0.826 | 0.711 | 0.89 | 0.522 |
| CUACUUCAAACAAGCGUUCUG [Fam1A.1 aminoacylation ribozyme variant] | 0.391 | 0.499 | 0.517 | 0.499 | 0.481 | 0.503 |
| CUACCUCAAACAAUCGAUCUG [Fam1A.1 aminoacylation ribozyme variant] | 0.974 | 0.581 | 0.645 | 0.582 | 0.678 | 0.479 |
| CCACCCUUCAUGCAAUCGGUC [Fam1B.1 aminoacylation ribozyme variant] | 1.07 | 1.02 | 0.928 | 0.84 | 1.05 | 0.939 |
| AUUCACCUAGUUCAUCGUGUG [Fam2.2 aminoacylation ribozyme variant] | 4.05 | 1.11 | 1.25 | 1.2 | 0.937 | 1.1 |
| AUACUUCAAACAAUCGGCCUG [Fam1A.1 aminoacylation ribozyme variant] | 20.7 | 1.44 | 2.02 | 1.69 | 1.68 | 15.5 |
| AUUACUCUGGUCUUCGAGUGA [Fam2.1 aminoacylation ribozyme variant] | 21.2 | 2.85 | 5.04 | 5.11 | 3.13 | 7.1 |
| AUUACCCUGGGCAUCGAGUAA [Fam2.1 aminoacylation ribozyme variant] | 0.782 | 1.13 | 1.11 | 1.39 | 1.1 | 0.725 |
| CUACUUCAUACAAUAGGUCUG [Fam1A.1 aminoacylation ribozyme variant] | 0.866 | 0.904 | 0.723 | 0.695 | 0.836 | 0.434 |
| AUUUCCCUGGUCAUCGAGAGA [Fam2.1 aminoacylation ribozyme variant] | 1.31 | 1.27 | 1.1 | 0.896 | 1.2 | 0.74 |
| CCACACUGCAAUCAAUCGGUC [Fam1B.1 aminoacylation ribozyme variant] | 1.17 | 0.892 | 0.887 | 0.823 | 1.16 | 0.838 |
| AUUCACCUAGGUCAUAGAGUG [Fam2.2 aminoacylation ribozyme variant] | 10.1 | 2.08 | 3.92 | 2.98 | 2.23 | 2.12 |
| CUACUUCAUACAAUCGGUCGG [Fam1A.1 aminoacylation ribozyme variant] | 0.968 | 1.01 | 1.03 | 1.04 | 1.03 | 0.701 |
| AUGAUUGCUAAUAGUCGCAAG [Fam3.1 aminoacylation ribozyme variant] | 2.06 | 1.24 | 1.53 | 1.67 | 1.34 | 1.61 |
| CUACUGCAAAGAAUCGGUCUG [Fam1A.1 aminoacylation ribozyme variant] | 1.92 | 0.81 | 0.747 | 0.798 | 0.773 | 0.681 |
| CUACGUCAAACAAUCGGUCGG [Fam1A.1 aminoacylation ribozyme variant] | 1.23 | 1.19 | 1.62 | 1.33 | 1.12 | 1.18 |
| AAGUUUGCAAAUAGUCGAAAG [Fam3.1 aminoacylation ribozyme variant] | 1.58 | 0.824 | 0.913 | 0.974 | 0.956 | 1.04 |

| Sequence | self-aminoacylation (biotinyl-Phe-oxazolone) | self-aminoacylation (biotinyl-Val-oxazolone) | self-aminoacylation (biotinyl-Leu-oxazolone) | self-aminoacylation (biotinyl-Met-oxazolone) | self-aminoacylation (biotinyl-Ile-oxazolone) | self-aminoacylation (biotinyl-Trp-oxazolone) |
| --- | --- | --- | --- | --- | --- | --- |
| CCACACUUCAUGCAAUCGGAC [Fam1B.1 aminoacylation ribozyme variant] | 0.671 | 0.986 | 0.558 | 0.675 | 1 | 0.489 |
| CUACUUCAAACAAUCGAUCUU [Fam1A.1 aminoacylation ribozyme variant] | 0.999 | 0.768 | 0.591 | 0.65 | 0.735 | 0.58 |
| AGGUUUGCUAAUACUCGCAAG [Fam3.1 aminoacylation ribozyme variant] | 0.881 | 0.766 | 0.706 | 0.538 | 0.884 | 0.633 |
| AAGUUUGCUAAUCGUCUCAAG [Fam3.1 aminoacylation ribozyme variant] | 1.35 | 0.939 | 0.733 | 0.743 | 0.934 | 1.05 |
| AAGUUUGCUAGUAGUCGGAAG [Fam3.1 aminoacylation ribozyme variant] | 1.32 | 0.826 | 1.23 | 0.942 | 0.786 | 0.725 |
| AUUAUCCUGGUCGUCGAGUGA [Fam2.1 aminoacylation ribozyme variant] | 0.709 | 0.911 | 1.01 | 1.07 | 1.01 | 1.03 |
| AAGUUUGCUAAUACGCGCAAG [Fam3.1 aminoacylation ribozyme variant] | 0.525 | 0.696 | 0.517 | 0.64 | 0.596 | 0.397 |
| AUCACCCUGGUCAUCGAGAGA [Fam2.1 aminoacylation ribozyme variant] | 1.6 | 1.25 | 1.41 | 1.41 | 1.69 | 0.96 |
| CCACACUUCAAGCACACGGUC [Fam1B.1 aminoacylation ribozyme variant] | 0.864 | 0.907 | 0.655 | 0.595 | 0.873 | 0.717 |
| CCAGACUUCAAGCAAUCAGUC [Fam1B.1 aminoacylation ribozyme variant] | 12.6 | 0.837 | 1.03 | 0.826 | 1.04 | 5.08 |
| CCACACUUCAAGUAAUAGGUC [Fam1B.1 aminoacylation ribozyme variant] | 0.913 | 0.65 | 0.478 | 0.55 | 0.583 | 0.56 |
| AAUUUUGCGAAUAGUCGCAAG [Fam3.1 aminoacylation ribozyme variant] | 1.48 | 1.54 | 1.6 | 1.82 | 1.71 | 2 |
| CCACACUACAAGCAAUCGAUC [Fam1B.1 aminoacylation ribozyme variant] | 0.798 | 0.531 | 0.441 | 0.376 | 0.46 | 0.543 |
| CCACAGUUCAAGCAAUCGGAC [Fam1B.1 aminoacylation ribozyme variant] | 0.525 | 0.965 | 0.719 | 1.14 | 1.08 | 0.61 |
| AAGUUUCCUAAUAUUCGCAAG [Fam3.1 aminoacylation ribozyme variant] | 0.549 | 0.841 | 0.935 | 0.987 | 0.935 | 0.649 |
| AAGUUUGCUAAUAGUUGCCAG [Fam3.1 aminoacylation ribozyme variant] | 1.29 | 0.841 | 0.92 | 0.937 | 1.09 | 1.02 |
| AUUCACCUAGGUUAUCGGUUG [Fam2.2 aminoacylation ribozyme variant] | 0.661 | 0.898 | 1.31 | 0.833 | 0.766 | 0.67 |
| GAGUUUGCUAAUAGUCGCGAG [Fam3.1 aminoacylation ribozyme variant] | 1.76 | 1.38 | 1.47 | 1.63 | 1.55 | 2.17 |
| CCACACUUCAAGAAAUGGGUC [Fam1B.1 aminoacylation ribozyme variant] | 0.579 | 0.831 | 0.729 | 0.779 | 0.863 | 0.812 |
| AUACUUCAAACAAUCCGUCUG [Fam1A.1 aminoacylation ribozyme variant] | 1.42 | 0.918 | 1.09 | 1.05 | 1.04 | 1.17 |
| CCACACUUCAUGCAUUCGGUC [Fam1B.1 aminoacylation ribozyme variant] | 0.592 | 1.06 | 0.757 | 0.889 | 0.924 | 0.78 |
| CUACCUCAAUCAAUCGGUCUG [Fam1A.1 aminoacylation ribozyme variant] | 1.85 | 0.871 | 0.785 | 0.828 | 0.8 | 1.44 |
| CUACUUAAAACAAUCGGCCUG [Fam1A.1 aminoacylation ribozyme variant] | 0.916 | 0.831 | 1.12 | 1.18 | 0.969 | 1.13 |
| AUGACCCUGGUCAUCGAGAGA [Fam2.1 aminoacylation ribozyme variant] | 2.57 | 1.34 | 1.52 | 1.47 | 1.28 | 1.36 |
| CUACUGCAAACAAUCGGUUUG [Fam1A.1 aminoacylation ribozyme variant] | 0.976 | 0.969 | 1.09 | 0.677 | 0.866 | 0.446 |
